# The campaign covered roughly 320,000 compounds. About 2,100 (0.66%) were called active. Calls follow the shape of the dose curve; as a rule, active = well fitted inhibition curve with a large enough effect in the signal ratio, with a control signal flat (not every such curve was filed as active); inconclusive = small, poorly fitted or top-dose-only effect, or effect the other way, or a change in a side signal; inactive = flat fitted curve, though single readings scatter; the % refers to the signal ratio. The inconclusive results got no clear call from the source. Potencies of inconclusive entries are doubtful fits and often do not repeat.
# Test: qHTS Assay for Lipid Storage Modulators in Drosophila S3 Cells
# Settings: BODIPY lipid droplet fluorescence, 18-24 h, cells fed with added oleic acid; lipid storage change, negative = inhibition: at 46.1 µM (top of the series) unless noted
# Summary of the method: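 Drosophila S3 cells loaded with oleic acid (400 uM, as added) and compounds at several concentrations; lipid droplets imaged by 488-nm laser-scanning cytometry, 500–530 nm intensity and object ratio to cell channel. Percent activity normalized to 20 uM Triacsin C.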
# % is scaled to controls: 0 for no effect and ±100 for the full control effect; potency is read from the fitted curve at half-maximal effect.
SMILES,Potency,"lipid storage change, negative = inhibition"
COc1ccc(C)cc1NC(=O)CSc1nnc(-c2ccco2)n1Cc1ccco1,"inconclusive: 0.651 µM [rising, single point]",–
CN1CCN(c2ccc(NC(=O)c3cccc(OCc4ccccc4)c3)cc2)CC1,–,inconclusive: 83.3%
Cc1cc2ccccn2c1C(=O)Nc1cccc(Cl)c1,–,inconclusive: 40.8%
C=C(C)C(=O)OCCCCCCOc1ccc(C(=O)O)cc1,–,inconclusive: 6.91%
CSc1nnc(-c2ccccc2SC)o1,–,inconclusive: 20.7%
CC1C(=O)N2CCCc3cc(NC(=O)C4CCCCC4)cc1c32 (centres undefined),–,inconclusive: -28.3% [at 0.0737 µM]
Cc1ccc(CNC(=O)C2CCCN(S(C)(=O)=O)C2)cc1 (centres undefined),–,inconclusive: 34.6%
COc1cc(CNC(=O)c2cnc(C)cn2)cc(OC)c1,–,inconclusive: -13.8%
CCOc1ccc(N2CC(C(=O)NCCc3c[nH]c4ccc(C)cc34)CC2=O)cc1 (centres undefined),–,inconclusive: 28.5%
Cc1ccc(S(=O)(=O)NCc2ccc(C(=O)N3CCN(c4ccccc4)CC3)cc2)cc1,"inconclusive: 11.6 µM [cytotoxic, partial curve]",–
CCC(C)[C@H](NC(=O)NCCC1=CCCCC1)C(=O)O (some centres undefined),"inconclusive: 0.259 µM [falling, full curve, poor fit]",–
COc1ccc(-c2nn(-c3ccccc3)cc2C(=O)N(C)CC(=O)Nc2cccc(F)c2)cc1,–,inconclusive: -85.6%
O=C(CNS(=O)(=O)c1ccccc1)NCC(=O)OCc1ccc(Cl)cc1,–,inconclusive: -10.3%
C/C(=N\O)C(=O)NCc1ccncc1,–,inconclusive: -6.1%
Cc1ccc(S(=O)(=O)NCCC(=O)Nc2ncccc2O)cc1C,–,inconclusive
COc1ccc(CN2CCN(C(=O)Cn3nc(C)n4cccc4c3=O)CC2)c(OC)c1OC,"inconclusive: 6.51 µM [activator, single point]",–
CC(=O)c1cccc(NC(=O)C2CCN(C(=O)c3cccs3)CC2)c1,–,inconclusive: -17%
O=C(Cc1sc(Nc2ccccc2)nc1-c1ccccc1)NCc1ccccc1,–,inconclusive: -4.43%
CN(c1ccccc1)S(=O)(=O)c1ccc(C(=O)Nc2nnc(C3CC3)s2)cc1,–,inconclusive: -5.92%
CSc1nc(-c2ccccc2)nc(N2CCN(C)CC2)c1C(C)=O,–,inconclusive: 17.4%

# Pulled by compound from the entries so far:
SMILES,Potency,"lipid storage change, negative = inhibition"
C/C(=N\O)C(=O)NCc1ccncc1,–,inconclusive: -6.1%
CC1C(=O)N2CCCc3cc(NC(=O)C4CCCCC4)cc1c32 (centres undefined),–,inconclusive: -28.3% [at 0.0737 µM]
CN(c1ccccc1)S(=O)(=O)c1ccc(C(=O)Nc2nnc(C3CC3)s2)cc1,–,inconclusive: -5.92%

# Next part

SMILES,Potency,"lipid storage change, negative = inhibition"
CC(=O)N[C@@H](Cc1c[nH]c2ccccc12)C(=O)OCC(=O)Nc1ccc(Cl)c(S(=O)(=O)N(C)C)c1,"inconclusive: 29.1 µM [activator, single point]",–
CN1CCN(S(=O)(=O)c2ccc(C(F)(F)F)cc2)C(c2ccccc2)C1 (centres undefined),–,inconclusive: 21.3%
CCOC(=O)C1=C(C)NC2=C(C(=O)C(C(=O)OCC)C(c3ccc(OC)cc3)C2)C1c1ccccn1 (centres undefined),"inconclusive: 32.6 µM [cytotoxic, single point]",–
Cc1cc(C(=O)N2CCCC(C(=O)c3ccc(Oc4ccccc4)cc3)C2)n[nH]1 (centres undefined),–,inconclusive: -54.4%
Cc1ccc(Cl)cc1NC(=O)c1ocnc1C,–,inconclusive: 1.42%
CCCNC(=O)c1ccc(Cl)c(Cl)c1,–,inconclusive: -20.2%
CC(C)CCNS(=O)(=O)c1ccc(-c2ccc(S(=O)(=O)NCCC(C)C)cc2)cc1,"inconclusive: 3.26 µM [falling, full curve]",–
Cc1cccc(-n2ncc3c2CCCC3NC(=O)C2CCOCC2)c1C (centres undefined),–,inconclusive: -76.5%
CCn1c(C)c(C2=CCN(S(=O)(=O)c3ccccc3)CC2)c2ccccc21,–,inconclusive: 26%
CCCCC(=O)Nc1c2c(nn1-c1ccc(C)cc1)CS(=O)(=O)C2,–,inconclusive: 9.97%
COc1ccc(/C=C/C(=O)c2c(O)ccc3c(C)cc(=O)oc23)cc1,"inconclusive: 16.4 µM [falling, single point]",–
O=C(c1ccccc1)N(Cc1ccccc1)c1ccccn1,–,inconclusive: 98%
CCN1CCN(CC(=O)c2ccc(OC)cc2)CC1,–,inconclusive: -51.1% [cytotoxic]
O=c1c2c3c(sc2nc2n1CCC2)CCC3,–,inconclusive: 9.39%
CN1CCN(C(=O)CCCN2C(=O)/C(=C/c3ccc(Cl)cc3)SC2=S)CC1,"inconclusive: 29.1 µM [falling, partial curve, poor fit]",–
O=C(Nc1ccc(Cl)cc1)C1CCN(C(=O)c2cccs2)CC1,–,inconclusive: 7.88%
COC(=O)c1cc(C#N)c(OC)nc1C,–,inconclusive: -1.78%
CCOc1ccc(S(=O)(=O)Nc2ccccc2C(=O)N2CCOCC2)cc1,"inconclusive: 29.1 µM [activator, single point]",–
COc1cc([N+](=O)[O-])cc([N+](=O)[O-])c1NC(=O)N1CCOCC1,–,inconclusive: -100%
